The values below come from publication PMC10687581.

Amino acid sequences for entries named in this document (tags omitted).
UniProt P46937: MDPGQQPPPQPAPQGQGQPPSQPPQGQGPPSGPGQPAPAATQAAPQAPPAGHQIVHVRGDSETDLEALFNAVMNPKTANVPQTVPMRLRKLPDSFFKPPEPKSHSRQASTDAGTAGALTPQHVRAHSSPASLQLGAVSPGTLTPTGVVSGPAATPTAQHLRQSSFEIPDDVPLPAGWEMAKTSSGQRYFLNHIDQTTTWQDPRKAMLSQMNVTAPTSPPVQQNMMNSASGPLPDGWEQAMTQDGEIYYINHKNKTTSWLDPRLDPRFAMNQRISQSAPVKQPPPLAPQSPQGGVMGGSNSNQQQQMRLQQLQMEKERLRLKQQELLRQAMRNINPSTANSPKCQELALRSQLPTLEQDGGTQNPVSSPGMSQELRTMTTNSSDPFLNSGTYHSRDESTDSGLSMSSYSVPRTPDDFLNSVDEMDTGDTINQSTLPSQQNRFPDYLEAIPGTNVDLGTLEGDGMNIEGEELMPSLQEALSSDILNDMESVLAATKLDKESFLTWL
UniProt Q99717: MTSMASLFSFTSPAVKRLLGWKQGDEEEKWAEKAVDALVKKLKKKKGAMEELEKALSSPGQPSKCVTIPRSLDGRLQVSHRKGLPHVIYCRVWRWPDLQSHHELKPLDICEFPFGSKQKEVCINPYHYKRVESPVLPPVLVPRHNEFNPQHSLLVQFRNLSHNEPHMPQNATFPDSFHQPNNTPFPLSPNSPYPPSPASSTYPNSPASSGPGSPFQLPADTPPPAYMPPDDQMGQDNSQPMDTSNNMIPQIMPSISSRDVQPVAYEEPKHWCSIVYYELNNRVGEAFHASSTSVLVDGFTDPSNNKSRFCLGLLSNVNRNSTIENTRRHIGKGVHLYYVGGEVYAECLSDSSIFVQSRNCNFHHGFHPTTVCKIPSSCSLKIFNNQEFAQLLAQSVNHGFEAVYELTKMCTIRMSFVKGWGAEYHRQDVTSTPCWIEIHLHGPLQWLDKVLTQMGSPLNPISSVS

Results are given in words; binding and its absence hold for the method and conditions named. Binding seen in cells or lysates may run through a third protein.

This assay deals with Yes-associated protein (YAP) (human (endogenous in Huh7)) (UniProt P46937). The experiment in a line: co-IP; endogenous proteins in Huh7 lysates (RIPA buffer); cells treated with XMU-MP-1 or DMSO for 12 h; lysates incubated with monoclonal antibodies against YAP or SMAD overnight at 4 °C, protein A/G agarose beads, 3 washes with PBS, Western blot. Background: A western blot detects proteins with antibodies after separation by electrophoresis.

SMAD5 (from UniProt Q99717 1-465): the binding result is “no binding”.
